Results as given in the supplement of paper PMC10849652.
The list shows a part of the results.

By UniProt entry, the sequences of proteins in these tests, tags left out. Where a name states a change or a piece, a line headed by the entry shows the natural chain unless it says otherwise.
UniProt Q6UUV7: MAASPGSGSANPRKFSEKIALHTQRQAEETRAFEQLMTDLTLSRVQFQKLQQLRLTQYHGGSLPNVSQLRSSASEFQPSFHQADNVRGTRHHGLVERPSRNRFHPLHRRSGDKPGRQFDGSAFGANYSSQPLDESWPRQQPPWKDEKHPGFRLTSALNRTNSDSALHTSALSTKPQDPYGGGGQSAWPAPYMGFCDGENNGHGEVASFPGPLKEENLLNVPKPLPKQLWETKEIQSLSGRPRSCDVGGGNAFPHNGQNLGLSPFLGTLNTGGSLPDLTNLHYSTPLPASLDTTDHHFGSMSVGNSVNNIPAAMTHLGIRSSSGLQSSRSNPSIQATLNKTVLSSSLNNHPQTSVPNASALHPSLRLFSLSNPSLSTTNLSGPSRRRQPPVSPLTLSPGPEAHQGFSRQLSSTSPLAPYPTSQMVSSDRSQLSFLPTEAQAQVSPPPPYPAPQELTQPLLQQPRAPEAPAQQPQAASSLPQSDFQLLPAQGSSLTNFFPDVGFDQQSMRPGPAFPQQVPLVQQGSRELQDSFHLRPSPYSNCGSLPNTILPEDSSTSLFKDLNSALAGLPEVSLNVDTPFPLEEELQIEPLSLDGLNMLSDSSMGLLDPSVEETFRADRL
UniProt P01037: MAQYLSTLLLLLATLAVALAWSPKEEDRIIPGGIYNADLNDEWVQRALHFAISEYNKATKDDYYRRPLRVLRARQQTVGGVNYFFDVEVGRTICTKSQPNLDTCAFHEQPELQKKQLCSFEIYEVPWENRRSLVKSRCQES
UniProt O75575: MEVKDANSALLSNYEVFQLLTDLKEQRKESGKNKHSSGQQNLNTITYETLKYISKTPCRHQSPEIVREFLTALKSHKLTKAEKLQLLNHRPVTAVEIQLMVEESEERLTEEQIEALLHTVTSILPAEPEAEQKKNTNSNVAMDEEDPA
UniProt P00167, whole entry, looked up: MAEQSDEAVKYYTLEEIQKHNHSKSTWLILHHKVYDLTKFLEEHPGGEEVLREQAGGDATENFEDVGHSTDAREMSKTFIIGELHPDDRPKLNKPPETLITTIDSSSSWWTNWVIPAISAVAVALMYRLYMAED

Legend:
Test in all cases: log2 fold change, soluble protein after heating vs DMSO (PISA); higher = thermal stabilisation; K562 lysate, 10 uM; active = over 0.2 and 3.5 SD of the protein, either way, in both replicates (recomputed)
erlotinib = compound: C#Cc1cccc(Nc2ncnc3cc(OCCOC)c(OCCOC)cc23)c1 [erlotinib]
In short: (§1)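 Following dounce homogenisation of K562 pellets in PBS pH 7.4 with 1 mM MgCl2, crude extract at 1 mg/mL protein was incubated for 30 min with 10 μM compound. Aliquots were then heated for 3 min over 48°C-58°C and pooled, NP-40 was added to 0.5% at 4°C, and soluble protein was recovered as the supernatant at 21,000xg for 90 min. Channel-sum-equalised TMTpro 16plex LC-MS/MS quantified this protein. Each value, from duplicates, is a log-two fold change in thermal stability relative to solvent controls.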

[1] = compound: C/C(=N\NC(=O)C1=CC(=CC=C1)S(=O)(=O)N2CCOCC2)/C3=C(C=CC(=C3)Cl)O
In short: as §1

[2] = compound: C1=CC(=CC=C1C2=NC3=C(N2)C=C(C=C3)C(=O)N)OC4=CC=C(C=C4)Cl
In short: as §1

[3] = compound: C1=CC2=C(C=CC(=C2)/C=C\3/C(=O)NC(=NCC4=CC=CS4)S3)N=C1
In short: as §1

[4] = compound: C1=CC2=NC=CN=C2C=C1/C=C/3\C(=O)NC(=O)S3
In short: as §1

[5] = compound: C1=CC=C(C=C1)C2=NC(=C(N2)C3=CC=NC=C3)C4=CC(=C(C=C4)Cl)O
In short: as §1

[6] = compound: C1=CC=C2C(=C1)C3=NNC4=CC=CC(=C43)C2=O
In short: as §1

[7] = compound: C1CCN(C1)C(=O)NC2=CC=CC(=C2)NC3=NC=C(C(=N3)NCCC4=CN=CN4)Br
In short: as §1

[8] = compound: C1CN(CCC1(CC2=CC=C(C=C2)Cl)N)C3=NC=NC4=C3C=CN4
In short: as §1

IRAK-1-4 Inhibitor I = compound: C1COCCN1CCN2C3=CC=CC=C3N=C2NC(=O)C4=CC(=CC=C4)[N+](=O)[O-] [IRAK-1-4 Inhibitor I]
In short: as §1

ibrutinib = compound: C=CC(=O)N1CCC[C@@H](n2nc(-c3ccc(Oc4ccccc4)cc3)c3c(N)ncnc32)C1 [ibrutinib]
In short: as §1

[9] = compound: CC(=O)c1cnc2ccc(-c3cc(Cl)c(O)c(Cl)c3)nc2c1N[C@H]1CC[C@H](CN(C)C)CC1
In short: as §1

ralimetinib = compound: CC(C)(C)Cn1c(N)nc2ccc(-c3[nH]c(C(C)(C)C)nc3-c3ccc(F)cc3)nc21 [ralimetinib]
In short: as §1

[10] = compound: CC(C)(O)CC(=O)NCCn1ccc2ncnc(Nc3ccc(Oc4cccc(C(F)(F)F)c4)c(Cl)c3)c21
In short: as §1

[11] = compound: CC(C)C1=C2N=C(C=C(N2N=C1)NCC3=CC=CC=C3)NCCCCCCN
In short: as §1

[12] = compound: CC1=C(C(CC(=O)N1)C2=CC=C(C=C2)C(F)(F)F)C(=O)NC3=C(C=C4C(=C3)C=NN4)F
In short: as §1

[13] = compound: CC1=C(C=C(C=C1)NC(=O)C2=CC(=CC=C2)C(C)(C)C#N)NC3=CC4=C(C=C3)N=CN(C4=O)C
In short: as §1

[14] = compound: CC1=C(C=C(C=C1)NC(=O)C2=CC(=CC=C2)N(C)C)NC(=O)C3=CC=C(C=C3)O
In short: as §1

[15] = compound: CC1=CC=C(C=C1)SC2=C3C=C(SC3=CN=C2)C(=O)N
In short: as §1

[16] = compound: CC1=C(C2=C(C=C1)C(=O)C3=CC=CC=C3N2CCCN)C
In short: as §1

Measured: log2 fold change

CRYM-AS1 (UniProt A6NIL9)
inactive: erlotinib 0.065 | [1] 0.166 | [2] 0.193 | [3] -0.319 | [4] 0.205 | [5] -0.149 | [6] -0.475 | [7] 0.084 | [8] 0.151 | IRAK-1-4 Inhibitor I 0.1 | ibrutinib 0.129 | [9] -0.197 | ralimetinib -0.146 | [10] -0.439 | [11] -0.048 | [12] -0.032 | [13] 0.009 | [14] -0.058 | [15] -0.092

CRTC3 (UniProt Q6UUV7)
inactive: erlotinib 0.039 | [1] -0.268 | [2] 0.042 | [3] 0.06 | [4] -0.118 | [5] -0.017 | [6] -0.131 | [7] 0.029 | [8] -0.012 | IRAK-1-4 Inhibitor I -0.011 | ibrutinib -0.057 | ralimetinib 0.093 | [10] -0.05 | [11] 0.01 | [16] -0.008 | [13] -0.011 | [14] -0.029

CST1 (UniProt P01037)
inactive: erlotinib 0.185 | [2] -0.156 | [5] -0.107 | [7] 0.026 | [8] -0.07 | IRAK-1-4 Inhibitor I -0.189 | ralimetinib -0.124 | [10] 0.725 | [11] 0.589 | [12] 1.24 | [13] -0.066 | [14] 0.051

CRCP (UniProt O75575)
inactive: erlotinib -0.074 | [1] -0.075 | [2] 0.028 | [3] -0.033 | [4] 0.022 | [5] -0.032 | [6] 0.052 | [7] -0.023 | [8] 0.023 | IRAK-1-4 Inhibitor I 0.094 | ibrutinib 0.032 | [9] 0.045 | ralimetinib 0.014 | [10] -0.013 | [11] -0.095 | [12] -0.111 | [13] -0.07 | [14] -0.086 | [15] -0.001

CYB5A (UniProt P00167)
inactive: erlotinib 0.015 | [2] -0.027 | [4] -0.039 | [5] -0.007 | [7] -0.01 | [8] 0.049 | IRAK-1-4 Inhibitor I -0.017 | ibrutinib 0.08 | ralimetinib -0.026 | [10] -0.057 | [11] 0.025 | [12] 0.06 | [16] -0.086 | [13] 0.001 | [14] 0.05
